Measurements as given in paper PMC4564143.
These are yes or no findings as the source states them, for the method shown. A result given as binding can be weak or reduced; the word gives no strength.

How the values were obtained:
[1] = target: B. afzelii OspC A3 (B. afzelii) (UniProt Q0SL36); experiment: ELISA; competition ELISA, sequential versus premix format: plates coated with 100 ng per well of one of four OspC proteins; soluble DsbA-fused tick protein; mouse immune sera at 1:100 for detection or premixed; supplemented with cleared E. coli lysate; background with SaΔN59 subtracted; both purified
[2] = target: B. afzelii OspC YU (B. afzelii) (UniProt Q0SL36); experiment: as above

## DsbA-fused Salp15 variant SaΔN59 (from UniProt Q95WZ4 60-135) (domain or fragment)
[1]
  binding: no binding
[2]
  binding: no binding

## DsbA-fused wild-type Salp15 (from UniProt Q95WZ4 22-135)
[1]
  binding: binds
[2]
  binding: binds
